# Laboratory results from the supplement of paper PMC7125110.
# ± gives the standard error. The uncertainty is large for many entries.
# B1: glmS ribozyme (parent)
# chain: AUAAAAGCGCCAGAACUACAGAAAUGUAGUUGACGAGGAGGAGGUUUAUCGAAUUUUCGGCGGAUGCCUCCAAA
# Variants of: B1
# Test: self-cleavage kobs at 40 uM GlcN6P; higher = faster cleavage; RNA array
# Details: with glucosamine-6-phosphate
# Method in brief: (§1)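 Tiles bearing barcoded ribozyme variants, transcribed in situ by E. coli RNA polymerase on sequenced MiSeq chips, were imaged over ~14 h at 37 °C using a hybridised Cy3 probe. Glucosamine-6-phosphate was supplied at 40 μM to 10 mM in HEPES/KCl/Mg(OAc)2 buffer. kobs came from one- or two-exponential decay fits to normalised per-tile medians, and weighted Michaelis–Menten fits then provided kcat and KM.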
row,Variant,self-cleavage kobs at 40 uM GlcN6P [s⁻¹]
1,C10G G60C C67A,2.87e-05 ± 2.2e-05
2,C8U C70G,1.95e-05 ± 1.8e-05
3,U30C C70U,1.2e-05 ± 9.4e-06
4,A6G A53G,1.88e-05 ± 1.4e-05
5,A53G C68G,1.61e-05 ± 8.2e-06
6,G29A A53C,2.87e-05 ± 2.8e-05
7,G9A C34U A36C C50G,5.21e-05 ± 2.9e-05
8,C10A C11U U65G C67U C68A,3.74e-05 ± 2e-05
9,A53U G66U,1.3e-05 ± 1.1e-05
10,C10G A14G U65A C67G,3.06e-05 ± 1.8e-05
11,G13A A15U U47A G59C C61G C68G C70U,3.99e-05 ± 2.3e-05
12,C11A C58U C68A,5.96e-05 ± 4e-05
13,G44A G66A,4.12e-05 ± 2.5e-05
14,C11U A12G,1.89e-05 ± 1.2e-05
15,A12G C67G C68A,2.53e-05 ± 1.6e-05
16,C8A G13U C50A C70G,9.65e-05 ± 4.8e-05
17,A42C U69C,1.81e-05 ± 1.5e-05
18,C11U A14G G35U C50G,0.000164 ± 8.9e-05
19,G9U A39U C61A,3.53e-05 ± 3.2e-05
20,G29A U46G,4.66e-05 ± 3e-05
21,C8U C10U C67G,2.72e-05 ± 2e-05
22,A6U,< 1e-05

# Variants of: B1
# Test: self-cleavage kobs at 10000 uM GlcN6P; higher = faster cleavage; RNA array
# Details: with glucosamine-6-phosphate
# Method in brief: as §1
row,Variant,self-cleavage kobs at 10000 uM GlcN6P [s⁻¹]
1,C8U C70G,0.000827 ± 0.00064
2,A53G C68G,0.00202 ± 0.0012
3,G9A C34U A36C C50G,4.13e-05 ± 2.6e-05
4,G59U G66A,2.03e-05 ± 1.3e-05
5,U65A C67A,0.00291 ± 0.0016
6,G40U U46C U47G,2.44e-05 ± 1.9e-05
7,C8A G13U C50A C70G,3.91e-05 ± 2.9e-05
8,G59A G66A,1.94e-05 ± 1e-05
9,C11U A14G G35U C50G,3.54e-05 ± 2.2e-05

# Two successive records already listed:
row,Variant,self-cleavage kobs at 10000 uM GlcN6P [s⁻¹]
2,A53G C68G,0.00202 ± 0.0012
3,G9A C34U A36C C50G,4.13e-05 ± 2.6e-05

# Variants of: B1
# Test: KM; higher = weaker cofactor use; RNA array
# Details: with glucosamine-6-phosphate
# Method in brief: as §1
row,Variant,KM [µM]
1,U45C U65A C67G,1660 ± 630
2,A42G A64G,1370 ± 520
3,A39C U46C,2740 ± 280
4,C61A C71A,152 ± 130
5,U30C C67A,268 ± 170
6,U56G C71G,588 ± 300
7,C16G U55A,2500 ± 1400
8,U30A U55A,1850 ± 740
9,A42G U47G,1360 ± 750
10,A42G U47A,490 ± 290
11,G40C U69C,1610 ± 1400
12,G38U A39G,2660 ± 1000
13,G41A A42G,915 ± 530
14,G38A G59C,37.4 ± 31
15,U65A C71U,732 ± 450
16,G40C A42U,411 ± 300
17,G37A G66C,2250 ± 630
18,A36C C68U,56.7 ± 56
19,U30C C70U,1890 ± 790
20,G29U U31C,3110 ± 1900
21,U31C C70U,249 ± 130
22,U55A A64G,1490 ± 810
23,U31C A52U,1560 ± 1100

row,Variant,KM [µM]
1,G60C C68G,263 ± 160
2,A52G C68U,2500 ± 1600
3,G41C C58U,79.8 ± 45
4,U45A U69C,53.9 ± 45
5,G59U C61G,57.7 ± 54
6,A42G A53C,1540 ± 610
7,U55C G66U,1220 ± 830
8,G37A G41A,4150 ± 2300
9,U30C G40A,3260 ± 1400
10,U45A G66U,2090 ± 330
11,G40U U55A,2130 ± 1500
12,U54A U56A,2140 ± 380
13,C16G U56C,1880 ± 1000
14,A33G U49C U57A,585 ± 340
15,G43A C68U,209 ± 120
16,G40A G41A U55G,578 ± 220
17,U49C C70G,238 ± 180
18,G29C A39U,3800 ± 2000
19,C16G A39G,3090 ± 1700
20,A53G C68G,320 ± 160
21,G29A A53C,1010 ± 570
22,G29A A53U,1320 ± 660
23,C67G C70A,316 ± 170

row,Variant,KM [µM]
1,G44A U56G,1460 ± 780
2,U30C A53U,1290 ± 540
3,U45A C67U,2930 ± 1500
4,G41A A52G,1080 ± 780
5,G59U G66A,3110 ± 100
6,A48U U55C,2190 ± 650
7,U30A G32A,3950 ± 2400
8,U47C C67U,825 ± 530
9,A53U G66U,2320 ± 590
10,G66C C71A,733 ± 370
11,G41A U45C,303 ± 140
12,G43C A53G C68U,1790 ± 1100
13,U65A C67A,23.4 ± 15
14,U30C G62U,50.7 ± 42
15,G40U U46C U47G,1390 ± 1100
16,A39U A48G,2340 ± 1400
17,G38U G40A,47.6 ± 44
18,U55G G60U G63A G66C,208 ± 140
19,U47G G66U,756 ± 130
20,A53C U55C,1150 ± 480
21,A39U U55A,5710 ± 1200
22,A39G C70U C71U,103 ± 60
23,A48G U56A,1220 ± 750

row,Variant,KM [µM]
1,U49G U56A,2720 ± 2000
2,G44A G66A,1440 ± 840
3,C16G U65A,3010 ± 580
4,U49G A53C,2860 ± 2200
5,G66A C70U,1240 ± 660
6,U30G C67A,1110 ± 570
7,U45G C70A,827 ± 480
8,G38U U65G,107 ± 46
9,U56G G66A,2460 ± 1300
10,G37A G44U,2110 ± 1300
11,A42G U69G,112 ± 63
12,G59A G66A,118000 ± 9900
13,U46C A52U,20200 ± 9900
14,G59A C67U,2710 ± 2500
15,A42C U69C,640 ± 410
16,U57C G66U,734 ± 530
17,G32C U47C G62C C71U,134 ± 92
18,U55C C71A,3820 ± 600
19,C16G G32A C68U,209 ± 170
20,U31G G44U,8740 ± 3600
21,A39G U65A,2070 ± 1200
22,A39C G43U,787 ± 540
23,A39C C58U,740 ± 730

# Shown bar-delimited: entries from further up
row | Variant | KM [µM]
7 | U45G C70A | 827 ± 480
8 | G38U U65G | 107 ± 46
12 | G59A G66A | 118000 ± 9900
13 | U46C A52U | 20200 ± 9900
14 | G59A C67U | 2710 ± 2500
15 | A42C U69C | 640 ± 410
19 | C16G G32A C68U | 209 ± 170

# Continued:

row,Variant,KM [µM]
1,G37U U65G,1260 ± 500
2,U47G C67U,657 ± 480
3,U55C U69C,13600 ± 6700
4,A48G U65G,13000 ± 8600
5,A53C C67G,493 ± 400
6,C16U U30A G40A,1030 ± 380
7,A36G,1080 ± 880
8,G29A G32U,20700 ± 7600
9,A52U U55C,11300 ± 3000
10,U31G G59A,21400 ± 2000
11,U30C G37C C70U,26 ± 26
12,U31C A53G,1960 ± 740
13,G29U G41C U54G C70G,2090 ± 1400
14,U45A C70A,1480 ± 1200
15,C67A U69C,244 ± 170
16,A52U U54C,2570 ± 310
17,G43U U65A,5670 ± 730
18,A33U,2770 ± 160
19,G41U U54A,133 ± 100
20,U55C C58A,2580 ± 1500
21,G41U C70A,412 ± 220
22,G41U C70G,212 ± 150
23,U46G U69G,16.4 ± 13

# Single entries from the entries so far:
# A52U U55C – KM [µM]: 11300 ± 3000
# U31G G59A – KM [µM]: 21400 ± 2000
# U30C G37C C70U – KM [µM]: 26 ± 26
# A48G U65G – KM [µM]: 13000 ± 8600
# G43U U65A – KM [µM]: 5670 ± 730

# Additional entries

row,Variant,KM [µM]
1,A52G G62A,2360 ± 2000
2,U46C U49G,817 ± 220
3,U31A G41C,501 ± 200
4,G41U U49G,1400 ± 1100
5,A39U U54C,3700 ± 1900
6,U46G C68G,678 ± 110
7,G32A A53C,5930 ± 3600
8,G32A A53U,2160 ± 1400
9,C34A U56G,31 ± 12
10,U54A G59A,4220 ± 1300
11,G29A U46G,3300 ± 2100
12,C50U C71U,917 ± 550
13,A39G U55C,3000 ± 920
14,U46G C71G,779 ± 560
15,G29A C70U,175 ± 120
16,C34U C61A,18.6 ± 18
17,U46G U54G,3110 ± 510
18,A33U A39G,4730 ± 3100
19,U30A C71A,603 ± 230
20,G32A U56A,5360 ± 1600
21,U31C U46G,2730 ± 1900

# Variants of: B1
# Test: self-cleavage kobs at 2500 uM GlcN6P; higher = faster cleavage; RNA array
# Details: with glucosamine-6-phosphate
# Method in brief: as §1
row,Variant,self-cleavage kobs at 2500 uM GlcN6P [s⁻¹]
1,U45C U65A C67G,0.00146 ± 0.00098
2,C10G A14G U65A C67G,3.4e-05 ± 2.4e-05
3,U65A C67A,0.00287 ± 0.0016
4,A42G U69G,0.000235 ± 0.00013
5,G59A C67U,1.58e-05 ± 1.1e-05
6,U31G G59A,1.37e-05 ± 1.1e-05
7,C67A U69C,0.01 ± 0.0094
8,G41U U49G,3.23e-05 ± 2.1e-05
9,U54A G59A,2.31e-05 ± 1.4e-05
10,A39G U55C,0.0598 ± 0.047
11,G29A C70U,0.00402 ± 0.0029

# Variants of: B1
# Test: self-cleavage kobs at 160 uM GlcN6P; higher = faster cleavage; RNA array
# Details: with glucosamine-6-phosphate
# Method in brief: as §1
row,Variant,self-cleavage kobs at 160 uM GlcN6P [s⁻¹]
1,G41A A42G,2.97e-05 ± 1.7e-05
2,U30C A53U,2.48e-05 ± 1.3e-05
3,G66C C71A,2.43e-05 ± 1.3e-05
4,U55C C71A,2.08e-05 ± 1.4e-05
5,U55C U69C,2.48e-05 ± 1.8e-05
6,U31C U46G,1.96e-05 ± 1.2e-05

# Variants of: B1
# Test: self-cleavage kobs at 640 uM GlcN6P; higher = faster cleavage; RNA array
# Details: with glucosamine-6-phosphate
# Method in brief: as §1
row,Variant,self-cleavage kobs at 640 uM GlcN6P [s⁻¹]
1,G40C A42U,2.11e-05 ± 1.7e-05
2,G41A A52G,1.94e-05 ± 1.4e-05
3,G66C C71A,5.3e-05 ± 3.1e-05
4,A39U A48G,1.37e-05 ± 1.2e-05
5,G59A C67U,2.05e-05 ± 1.5e-05
6,U31G G44U,2.71e-05 ± 1.7e-05
7,A53C C67G,1.47e-05 ± 1.3e-05
8,A52U U55C,2.77e-05 ± 1.4e-05
9,C50U C71U,1.5e-05 ± 1.1e-05
